Reference: the supplement of paper PMC10849652
This is one part of the list.

Tests used:
Experiment in all cases: log2 fold change, soluble protein after heating vs DMSO (PISA); higher = thermal stabilisation; K562 lysate, 10 uM; active = over 0.2 and 3.5 SD of the protein, either way, in both replicates (recomputed)
[1] = compound: C1=CC=C(C=C1)[C@H](COC2=CC3=C(C=C2)NC(=O)N3)NC(=O)C4=CC=CN(C4=O)CC5=CC(=C(C=C5)F)F
How it was run: (§1)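 Quantification was by TMTpro 16plex LC-MS/MS with equalised channel sums, applied to the supernatant after 21,000xg for 90 min. Samples were crude K562 extract at 1 mg/mL protein in PBS pH 7.4 with 1 mM MgCl2, treated with 10 μM compound for 30 min, heated for 3 min across 48°C-58°C, pooled and brought to 0.5% NP-40 at 4°C. Values are log-two fold changes in thermal stability relative to solvent controls, from duplicates.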

[2] = compound: CC1=C(SC2=C1C(=N[C@H](C3=NN=C(N32)C)CC(=O)N)C4=CC=C(C=C4)Cl)C
How it was run: as §1

[3] = compound: CC1=C2C(=CC=C1)N=C(N(C2=O)C3=CC=CC=C3C)CN4C=NC5=C(N=CN=C54)N
How it was run: as §1

[4] = compound: Cc1sc2c(c1C)C(c1ccc(Cl)cc1)=N[C@@H](CC(=O)OC(C)(C)C)c1nnc(C)n1-2
How it was run: as §1

[5] = compound: c1ccc([C@@H]2C[C@H]2NC2CCNCC2)cc1
How it was run: as §1

Measured: log2 fold change

PPIL1 (UniProt Q9Y3C6)
inactive: [1] -0.002 | [2] 0.014 | [3] 0.055 | [4] -0.009 | [5] -0.008

PPP4R3B (UniProt Q5MIZ7)
inactive: [1] -0.008 | [2] -0.007 | [3] -0.01 | [4] -0.017 | [5] -0.003

PRMT6 (UniProt Q96LA8)
inactive: [1] 0.04 | [2] -0.03 | [3] -0.01 | [4] -0.014 | [5] 0.014

PPIP5K2 (UniProt O43314)
inactive: [1] 0.045 | [2] 0.023 | [3] 0.02 | [4] 0.028 | [5] 0.095

PPP2R5C isoform 4 (UniProt Q13362)
inactive: [1] -0.057 | [2] 0.003 | [3] 0.021 | [4] -0.103 | [5] 0.021

PPP3CC (UniProt P48454)
inactive: [1] 0.027 | [2] -0.078 | [3] -0.079 | [4] 0.079 | [5] 0.009

PPIH (UniProt O43447)
inactive: [1] -0.001 | [2] -0.026 | [3] 0.019 | [4] 0.044 | [5] 0.029

PRKCB isoform 2 (UniProt P05771)
inactive: [1] -0.007 | [2] -0.022 | [3] 0.086 | [4] 0.07 | [5] -0.005

PRKAG2 (UniProt Q9UGJ0)
inactive: [1] -0.042 | [2] 0.034 | [3] -0.044 | [4] 0.021 | [5] -0.013

PPP6R1 (UniProt Q9UPN7)
inactive: [1] -0.014 | [2] 0.018 | [3] 0.013 | [4] 0.004 | [5] -0.003

PPP1R16A (UniProt Q96I34)
inactive: [1] -0.141 | [2] 0.039 | [3] -0.128 | [5] 0.061

PPP1R13L (UniProt Q8WUF5)
inactive: [1] -0.396 | [2] -0.242 | [3] 0.037 | [5] -0.089

PPP2R3B (UniProt Q9Y5P8)
inactive: [1] -0.018 | [2] -0.299 | [5] 0.046

PPP2CB (UniProt E5RHC1)
inactive: [1] -0.186 | [2] 0.23 | [4] 0.267 | [5] 0.346

PREB (UniProt Q9HCU5)
inactive: [1] 0.026 | [2] 0.021 | [3] -0.006 | [4] 0 | [5] -0.015

PRKAR1A (UniProt P10644)
inactive: [1] 0.022 | [2] -0.028 | [3] -0.012 | [4] 0.067 | [5] 0.006

PPP6R3 isoform 2 (UniProt Q5H9R7)
inactive: [5] 0.061

PROSER3, A0A2R8Y8D9
inactive: [4] 0.003

PRDM15 (UniProt P57071)
inactive: [4] -0.196

PPTC7 (UniProt Q8NI37)
inactive: [3] -0.019 | [4] 0.076

PRNP (UniProt P04156)
inactive: [1] 0.213 | [2] 0.063 | [4] -0.016 | [5] -0.162

PRPF3 (UniProt O43395)
inactive: [1] 0.037 | [2] 0.039 | [3] -0.042 | [4] 0.036 | [5] 0.084

PPP1R11 (UniProt O60927)
inactive: [1] -0.025 | [2] -0.095 | [4] 0.014 | [5] 0.001

PREP (UniProt H0Y5Y0)
inactive: [5] 0.086

PRC1 (UniProt O43663)
inactive: [1] 0.089 | [2] 0.037 | [3] 0.026 | [4] 0.03 | [5] 0.043

PROSER3 (UniProt Q2NL68)
inactive: [3] -0.051 | [5] -0.086

PPP1R12C isoform 4 (UniProt Q9BZL4)
inactive: [1] -0.016 | [2] -0.017 | [3] 0.004 | [4] -0.064 | [5] 0.007

Looked up one by one from the entries so far, 2 records:
PPP1R11 (UniProt O60927)
inactive: [1] -0.025 | [2] -0.095 | [4] 0.014 | [5] 0.001

PPP2R3B (UniProt Q9Y5P8)
inactive: [1] -0.018 | [2] -0.299 | [5] 0.046

Next part:

PRH1 (UniProt P02810)
inactive: [5] 0.034

PPP1R12C isoform 3 (UniProt Q9BZL4)
inactive: [1] 0.126 | [2] 0.036 | [5] -0.237
